# Source: the supplement of paper PMC3334620
# Over roughly 33,000 sequences, “E-score (-0.5 to 0.5)” has its median near -0.015; the highest 2% begin near 0.3. The list shows a part of the results.
# Biological target: T1, Abf1 (UniProt P14164)
# T1 sequence: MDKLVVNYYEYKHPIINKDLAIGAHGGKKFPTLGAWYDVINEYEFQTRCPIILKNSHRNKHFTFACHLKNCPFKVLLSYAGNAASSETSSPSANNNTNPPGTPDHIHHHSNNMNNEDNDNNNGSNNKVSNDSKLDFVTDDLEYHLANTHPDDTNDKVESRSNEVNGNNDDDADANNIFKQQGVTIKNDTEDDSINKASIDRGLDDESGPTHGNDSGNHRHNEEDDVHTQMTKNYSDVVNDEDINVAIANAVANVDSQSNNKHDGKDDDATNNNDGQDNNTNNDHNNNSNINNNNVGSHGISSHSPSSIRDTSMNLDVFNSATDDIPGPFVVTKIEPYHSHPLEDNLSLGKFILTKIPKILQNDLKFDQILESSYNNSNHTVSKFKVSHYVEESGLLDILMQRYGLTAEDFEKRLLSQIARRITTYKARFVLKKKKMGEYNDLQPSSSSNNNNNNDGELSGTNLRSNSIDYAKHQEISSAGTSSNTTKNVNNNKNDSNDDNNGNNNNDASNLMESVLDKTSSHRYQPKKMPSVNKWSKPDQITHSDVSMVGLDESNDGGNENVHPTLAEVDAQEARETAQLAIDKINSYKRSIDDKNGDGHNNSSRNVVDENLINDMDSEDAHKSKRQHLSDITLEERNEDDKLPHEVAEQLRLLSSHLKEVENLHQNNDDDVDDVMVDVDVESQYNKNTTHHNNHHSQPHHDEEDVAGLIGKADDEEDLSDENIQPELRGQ
# Experiment: PBM E-score (8-mer binding enrichment) (E-score (-0.5 to 0.5)); higher = stronger / more preferred TF binding
# Settings: protein concentration: 200 nM; construct: GST-full length
# Outline: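 Full-length yeast transcription factors or their DNA-binding domains, GST-tagged and expressed with PURExpress, were applied at about 100-200 nM to universal all-10-mer Agilent arrays. These arrays had been made double-stranded by primer extension on fresh or once-stripped slides. Detection used fluorescent anti-GST, normalisation used masliner, and E-scores for ungapped eight-base words pooled with reverse complements came from the Universal PBM Analysis Suite.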
row,Sequence,PBM E-score
1,CTGTAAAG,-0.0691
2,CATGCGAA,0.0115
3,CCCTCATC,-0.182
4,ACGCCAAT,0.0806
5,CCTCGCAG,-0.189
6,AATAGACG,0.058
7,ATTGTGAG,-0.0226
8,CTTAGGTC,-0.153
9,AGCATACG,0.0119
10,ATCCCACG,0.0512
11,CGCTCAGA,-0.146
12,CCTTCGGA,-0.111
13,AGCGCATA,0.103
14,AACTGCCA,-0.0469
15,ACGTCATA,0.222
16,CCTATAGC,-0.24
17,CCGTCAGC,0.103
18,ACCATCAA,-0.162
19,CTAATATC,0.284
20,GCCAGATA,-0.143
21,CTCACTAA,0.129
22,CATGGGAC,-0.0164
23,GCACAGTA,0.0727
24,CGACTTTC,-0.0316
25,AACGGTCA,0.0956

row,Sequence,PBM E-score
1,GCAGGGCC,-0.2
2,CGCCGCTA,-0.174
3,AGTGCCCA,-0.0527
4,TAAAGCTA,-0.0625
5,GATGGCAA,0.00551
6,GGACGGAC,-0.0138
7,AGTCCTTG,0.136
8,AATACCGG,-0.152
9,ATCGTATC,0.242
10,GCAAGAAA,-0.0809
11,CCGAGACG,0.0483
12,CGCAAGAA,0.172
13,AACTGCCG,0.132
14,CCGGATTA,-0.0556
15,AGCGGACC,-0.0104
16,GGTGCTAC,-0.1
17,GCACATGC,-0.137
18,GATTAGAC,0.00825
19,GAGTAAGC,-0.0833
20,ATACTCAC,0.0974
21,ATGAGGGG,-0.228
22,CGTACATC,0.134
23,CAGCTTAG,-0.147
24,ATTTGCAC,0.0183
25,ACCCGCAT,0.125

row,Sequence,PBM E-score
1,ATTTTGTG,0.0301
2,GGCGTCAA,-0.206
3,CCACAGCG,0.00589
4,GCCCGCCA,-0.251
5,ACACATCG,-0.0438
6,CATAAACG,0.22
7,CTGTCGCA,-0.127
8,ATAACGGC,0.23
9,ACCAGAAT,0.0249
10,ATTGCTTA,0.0839
11,ACATGAAG,0.00147
12,CCTTGATC,-0.0146
13,CGCCCCAG,-0.19
14,GAGCATGC,-0.243
15,AGCGGCGG,-0.112
16,AGCATATA,-0.0274
17,TTATATAA,0.184
18,CACAATGG,-0.0344
19,CATCATTA,0.294
20,AGATACAA,0.129
21,CTCTACAA,-0.0494
22,GGGTCAGA,-0.137
23,AACCGCAC,-0.0655
24,CACCGAGA,0.0036
25,CCAACTGC,-0.222

row,Sequence,PBM E-score
1,ACAGCGGA,-0.058
2,AAGCGGGA,0.0301
3,CAGCACAA,0.0664
4,GTTGATTA,0.124
5,CTAATCAG,0.0367
6,ACGGGGCT,-0.00846
7,GAGGTAAC,0.109
8,TATCTACA,0.128
9,CCGCCATC,-0.26
10,ACAAGAAC,0.289
11,AGAACTTG,-0.00394
12,AATGGCTG,-0.181
13,GTAGCTTA,0.19
14,CATCCTCC,-0.127
15,CGCGGCCA,-0.171
16,CCGCATTC,0.00443
17,ACCACTCA,-0.0784
18,CCTCGCCC,-0.0351
19,ATTACTCG,0.0809
20,ATACTGTG,0.00537
21,ATCATTAC,0.262
22,CAACCCTA,-0.17
23,ATAGTCGC,0.0895
24,CGTGGCTC,-0.148
25,ATGTGAGA,0.0123

# Fetched one by one from the list above:
row,Sequence,PBM E-score
3,CCACAGCG,0.00589
24,ATTTGCAC,0.0183

# Next entries follow.

row,Sequence,PBM E-score
1,CCGGCCTA,-0.129
2,CTTCTATC,0.0251
3,AAGCCAGC,-0.221
4,TCTGTCCA,-0.22
5,AGTCCCAT,-0.0851
6,AAATCTCG,0.0579
7,TCAGGGGA,-0.0864
8,CAGGAGTA,-0.0725
9,AGAGTTTC,-0.069
10,GAACCCTA,0.00224
11,CGGATTTC,-0.0185
12,CCCCGCAA,-0.0817
13,CCACCTTC,-0.187
14,GGTTCGAA,0.114
15,CAGTGAGG,-0.166
16,CCTCTCAA,-0.0801
17,CACTTGCG,-0.0875
18,ACAAGCAG,-0.169
19,AGGCGTAG,-0.237
20,CGCTCGGC,-0.06
21,CCCGACCA,-0.153
22,CAGTGGAG,0.062
23,CGGCTTCA,0.0882
24,ATGTGCGC,-0.0469
25,GTCCGCAC,-0.118

row,Sequence,PBM E-score
1,AATAGAAA,0.02
2,CACAAAGC,-0.199
3,CAATTGCA,-0.204
4,GATGAGCA,0.153
5,ACGGACGT,0.105
6,TGCGGAAA,-0.16
7,CACTAGAG,0.0171
8,AGTCGCGG,-0.0974
9,TCTCGAAA,0.136
10,GGTGGAAC,-0.155
11,CGGGCTAG,-0.12
12,AACAGCGG,-0.129
13,ACGTTACA,0.179
14,AAGTTAAT,0.248
15,AGCTTTGC,-0.222
16,AAGTCCCG,-0.0454
17,AAATTGTC,0.18
18,ACGAGAAA,0.124
19,ACTGTTCC,-0.0449
20,GAGCCTCC,-0.0985
21,TAGATGCA,-0.0438
22,ACATATCC,0.236
23,GATTGAAC,0.0154
24,ACGATATC,0.321
25,CCCTTCCA,-0.325

row,Sequence,PBM E-score
1,AATTGTTA,0.0695
2,CAATAAAC,0.0652
3,AACCCCGC,-0.129
4,AATGCTCG,0.101
5,CAAAAACA,0.0687
6,ACCCAACT,-0.129
7,ATTGGTAC,-0.145
8,TACTCAAA,0.136
9,CCGTGTTC,0.146
10,CCAGCCTA,-0.199
11,ACCGATCA,0.196
12,ACTTTGCA,0.0351
13,AACGAATC,0.219
14,TACATGCA,0.0369
15,TAGAGCCA,-0.171
16,CATGAGTC,0.074
17,AATGAATC,-0.0608
18,CACTAATC,0.125
19,AGCTGCTA,-0.0858
20,GCTACGAC,-0.0162
21,CATTTTTA,0.111
22,CACTTCTG,-0.118
23,ACCGGCAG,-0.305
24,CAGCGCGC,-0.108
25,AACGACTC,0.0243

# A few values from the list:
# PBM E-score, CATCCTCC reads -0.127
# PBM E-score, ATAACGGC reads 0.23
# PBM E-score, ACGGACGT reads 0.105
# PBM E-score, CTCACTAA reads 0.129
# PBM E-score, CCGGATTA reads -0.0556
# PBM E-score, CGCGGCCA reads -0.171
# PBM E-score, AGCATACG reads 0.0119

# Remaining list, next part:

row,Sequence,PBM E-score
1,GCTACACA,-0.138
2,CTGGAAAC,0.0142
3,GGAAAACC,-0.251
4,GCCCGTCA,-0.00497
5,CTACATTC,-0.12
6,GACGTTCA,-0.00729
7,GCGGCCCA,-0.308
8,TGCTTTAA,0.11
9,ATTGGGAA,-0.0686
10,CTATTCCC,-0.128
11,CACGAATC,0.181
12,CGTATACA,0.114
13,ATTAGTAA,0.0129
14,GAGCCCTA,-0.194
15,ATCGTTCG,0.273
16,AATCCTGA,-0.201
17,CATGTTCA,-0.0791
18,CCCTTACA,-0.0196
19,CCGAGTGC,-0.178
20,GTTCTTGA,0.0397
21,CATCCATC,-0.138
22,GCGTCGAC,0.0714
23,AGTGGGTG,0.0546
24,AACCCTGG,0.0177
25,ACTTAGCC,0.0333

row,Sequence,PBM E-score
1,AATGTGTG,0.102
2,CGCTGTTA,-0.0333
3,ACATATCT,0.171
4,CTTTTTGA,0.0353
5,CCTTGACA,-0.0249
6,CCACCACA,-0.24
7,AACAAAGG,-0.161
8,CCGACTTA,0.082
9,GTGTCGAA,-0.0353
10,AGCAGGAG,-0.0397
11,ATTGTGTA,0.147
12,AGAGTCAG,-0.102
13,AGATGATA,0.364
14,AACCTAAA,0.0712
15,CCCGTCAA,0.0248
16,CATTGCCG,0.0936
17,AGTAGACA,0.1
18,CACACTTC,-0.0074
19,GAAGCCAC,0.0321
